# In PubChem BioAssay:
# Inconclusive results, whose numbers are uncertain, are shown with a selection of clear calls. A potency beside an inconclusive call is a rough fit, not a confirmed value. Active and inactive are the calls of the source. Unless noted, cut-off not given; nearly all actives show AC50 up to about 23 µM.
# Experiment: growth inhibition of DIPG glioma cells, dose response, cell-based, SU-DIPG-XIII, MIPE5.0, CellTiter-Glo, qHTS (AID 1347064);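 on AC50: cells exposed to compound for 48 hours before the viability read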
# Conditions: SU-DIPG-XIII viability, CellTiter-Glo ATP luminescence
Structure (SMILES),outcome,AC50
O=C(c1ccc(F)cc1)N1CCC[C@H](c2nc(-c3ccc(F)cc3)no2)C1,inactive,
C#CCN(C)CC1=Cc2ccccc2Oc2ccccc21,,inconclusive: 1.05 nM
CN1C(=O)C(Cc2c[nH]c3ccccc23)NC1=S (stereo not given),inactive,
Cc1cc(SCc2sc(-c3ccc(C(F)(F)F)cc3)nc2C)ccc1OCC(=O)O,inactive,
O=C(O)C1=CO[C@@H](O[C@@H]2O[C@H](CO)[C@@H](O)[C@H](O)[C@H]2O)[C@@H]2C(CO)=CC[C@H]12,inactive,
CC(=O)N1CCN(c2ccc(OC[C@H]3CO[C@](Cn4ccnc4)(c4ccc(Cl)cc4Cl)O3)cc2)CC1,,inconclusive: 1.66 nM
CCCCC[C@H](O)/C=C/[C@H]1[C@H](O)CC(=O)[C@@H]1C/C=C\CCCC(=O)O,,inconclusive: 20900 nM [cytotoxic]
COC[C@H](NC(=O)c1cnc(C)s1)C(=O)N[C@@H](COC)C(=O)N[C@@H](Cc1ccccc1)C(=O)[C@@]1(C)CO1,,inconclusive: 74.2 nM [cytotoxic]
CCn1c(-c2nonc2N)nc2cncc(CNC3CCNCC3)c21,,inconclusive: 11800 nM [cytotoxic]
CCCN[C@H]1CCc2nc(N)sc2C1,inactive,
Cc1ccc(S(=O)(=O)NC(=O)NN2CC3CCCC3C2)cc1 (stereo not given),inactive,
CC[C@H]1OC(=O)[C@H](C)C(=O)[C@H](C)[C@@H](O[C@H]2O[C@H](C)C[C@H](N(C)C)[C@H]2O)[C@](C)(OC)C[C@@H](C)C(=O)[C@H](C)[C@H]2N(CCCCn3cnc(-c4cccnc4)c3)C(=O)O[C@]12C,inactive,
CCC(C)n1ncn(-c2ccc(N3CCN(c4ccc(OC[C@H]5CO[C@](Cn6cncn6)(c6ccc(Cl)cc6Cl)O5)cc4)CC3)cc2)c1=O (stereo not given in full),,inconclusive: 10200 nM [cytotoxic]
NC[C@H]1O[C@H](O[C@@H]2[C@H](O)[C@@H](O[C@H]3O[C@H](CO)[C@@H](O)[C@H](N)[C@H]3O)[C@H](N)C[C@@H]2N)[C@H](O)[C@@H](O)[C@@H]1O,,inconclusive: 46.8 nM [cytotoxic]
CN(C)CC/C=C1/c2ccccc2COc2ccc(CC(=O)O)cc21,inactive,
CC1(C)S[C@H]2[C@H](NC(=O)[C@@H](N)c3ccc(O)cc3)C(=O)N2[C@H]1C(=O)O,,inconclusive: 1320 nM
COCCCOc1cc(C[C@@H](C[C@H](N)[C@@H](O)C[C@H](C(=O)NCC(C)(C)C(N)=O)C(C)C)C(C)C)ccc1OC,,inconclusive: 1.18 nM
NC(=O)c1ccc(-c2nc(-c3ccc4c(c3)OCO4)c(-c3ccccn3)[nH]2)cc1,,inconclusive: 263 nM [cytotoxic]
NC(=O)c1cccc(-c2cccc(OC(=O)NC3CCCCC3)c2)c1,,inconclusive: 11.8 nM [cytotoxic]

# Experiment: viability loss in pontine glioma line – cell-based, SU-DIPG-XXV, MIPE5.0, CellTiter-Glo, qHTS, dose response (AID 1347065; cut-off not given, nearly all actives have AC50 up to about 26 µM;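 further: cells exposed to compound for 48 hours before ATP readout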)
# Conditions: CellTiter-Glo ATP luminescence
Structure (SMILES),outcome,AC50
O=C(c1ccc(F)cc1)N1CCC[C@H](c2nc(-c3ccc(F)cc3)no2)C1,inactive,
C#CCN(C)CC1=Cc2ccccc2Oc2ccccc21,inactive,
CN1C(=O)C(Cc2c[nH]c3ccccc23)NC1=S (stereo not given),inactive,
Cc1cc(SCc2sc(-c3ccc(C(F)(F)F)cc3)nc2C)ccc1OCC(=O)O,inactive,
O=C(O)C1=CO[C@@H](O[C@@H]2O[C@H](CO)[C@@H](O)[C@H](O)[C@H]2O)[C@@H]2C(CO)=CC[C@H]12,,inconclusive: 33200 nM
CC(=O)N1CCN(c2ccc(OC[C@H]3CO[C@](Cn4ccnc4)(c4ccc(Cl)cc4Cl)O3)cc2)CC1,,inconclusive: 16600 nM [cytotoxic]
CCCCC[C@H](O)/C=C/[C@H]1[C@H](O)CC(=O)[C@@H]1C/C=C\CCCC(=O)O,,inconclusive: 1860 nM [cytotoxic]
COC[C@H](NC(=O)c1cnc(C)s1)C(=O)N[C@@H](COC)C(=O)N[C@@H](Cc1ccccc1)C(=O)[C@@]1(C)CO1,,inconclusive: 66.1 nM [cytotoxic]
CCn1c(-c2nonc2N)nc2cncc(CNC3CCNCC3)c21,,inconclusive: 16600 nM [cytotoxic]
Cc1ccc(S(=O)(=O)NC(=O)NN2CC3CCCC3C2)cc1 (stereo not given),inactive,
CC[C@H]1OC(=O)[C@H](C)C(=O)[C@H](C)[C@@H](O[C@H]2O[C@H](C)C[C@H](N(C)C)[C@H]2O)[C@](C)(OC)C[C@@H](C)C(=O)[C@H](C)[C@H]2N(CCCCn3cnc(-c4cccnc4)c3)C(=O)O[C@]12C,inactive,
CCC(C)n1ncn(-c2ccc(N3CCN(c4ccc(OC[C@H]5CO[C@](Cn6cncn6)(c6ccc(Cl)cc6Cl)O5)cc4)CC3)cc2)c1=O (stereo not given in full),,inconclusive: 9100 nM [cytotoxic]
NC[C@H]1O[C@H](O[C@@H]2[C@H](O)[C@@H](O[C@H]3O[C@H](CO)[C@@H](O)[C@H](N)[C@H]3O)[C@H](N)C[C@@H]2N)[C@H](O)[C@@H](O)[C@@H]1O,inactive,
CN(C)CC/C=C1/c2ccccc2COc2ccc(CC(=O)O)cc21,inactive,
NC(=O)c1ccc(-c2nc(-c3ccc4c(c3)OCO4)c(-c3ccccn3)[nH]2)cc1,inactive,
NC(=O)c1cccc(-c2cccc(OC(=O)NC3CCCCC3)c2)c1,inactive,
